Measured values taken from paper PMC12713023, “CDH1 Orchestrates Anabolic Events to Promote Cell Cycle Initiation” (Advanced Science, 2025).
Results are given in words; binding and its absence hold for the method and conditions named. For part of these data: In cells and extracts the contact can be indirect. Some entries that bind do so weakly or less than the wild type. For part of these data: Tags and fused reporters may be left off the sequences shown. Values belong to the molecule of their own block, whether it stands above or below them.

Chains of the proteins cited; added tags and fusions are not shown.
UniProt Q9UM11: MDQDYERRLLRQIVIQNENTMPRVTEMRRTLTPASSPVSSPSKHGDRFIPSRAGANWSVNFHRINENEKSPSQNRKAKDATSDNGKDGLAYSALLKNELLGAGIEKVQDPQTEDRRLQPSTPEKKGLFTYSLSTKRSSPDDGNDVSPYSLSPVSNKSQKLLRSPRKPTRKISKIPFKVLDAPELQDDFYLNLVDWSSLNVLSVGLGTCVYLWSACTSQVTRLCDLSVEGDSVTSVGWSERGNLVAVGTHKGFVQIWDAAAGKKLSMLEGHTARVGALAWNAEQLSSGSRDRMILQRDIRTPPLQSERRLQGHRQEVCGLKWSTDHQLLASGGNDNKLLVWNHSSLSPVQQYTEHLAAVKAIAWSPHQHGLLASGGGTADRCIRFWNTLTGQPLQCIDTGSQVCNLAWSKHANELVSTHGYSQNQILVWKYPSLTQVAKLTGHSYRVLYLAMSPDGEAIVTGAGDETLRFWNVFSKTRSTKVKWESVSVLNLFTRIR
UniProt Q9Y297: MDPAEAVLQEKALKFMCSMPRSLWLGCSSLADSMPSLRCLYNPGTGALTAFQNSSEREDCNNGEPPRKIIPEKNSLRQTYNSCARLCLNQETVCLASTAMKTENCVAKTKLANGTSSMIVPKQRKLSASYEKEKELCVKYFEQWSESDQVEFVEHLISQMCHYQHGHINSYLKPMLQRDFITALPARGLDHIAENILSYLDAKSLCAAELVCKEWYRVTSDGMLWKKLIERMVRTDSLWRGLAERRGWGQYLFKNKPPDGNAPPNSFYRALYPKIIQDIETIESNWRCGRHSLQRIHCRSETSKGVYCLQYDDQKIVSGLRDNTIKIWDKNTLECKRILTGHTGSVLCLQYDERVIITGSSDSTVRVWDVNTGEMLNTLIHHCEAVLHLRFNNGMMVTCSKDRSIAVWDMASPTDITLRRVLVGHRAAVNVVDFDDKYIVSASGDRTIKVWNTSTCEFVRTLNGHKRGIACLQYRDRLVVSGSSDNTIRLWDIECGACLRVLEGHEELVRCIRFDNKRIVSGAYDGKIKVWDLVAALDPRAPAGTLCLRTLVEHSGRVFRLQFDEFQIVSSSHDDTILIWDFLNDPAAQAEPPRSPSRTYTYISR

How the values were obtained:
TKTL1^ΔD-box (human) = target: T1, TKTL1^ΔD-box (human) (UniProt P51854); assay: co-IP; HeLa cells (for CDH1 with β-TRCP1 also TKTL1 KO HeLa cells), with or without R5P supplementation; lysis in 0.5% NP-40 buffer (50 mM Tris-HCl pH 7.5, 150 mM NaCl); Flag beads at 4 °C overnight
T1 sequence: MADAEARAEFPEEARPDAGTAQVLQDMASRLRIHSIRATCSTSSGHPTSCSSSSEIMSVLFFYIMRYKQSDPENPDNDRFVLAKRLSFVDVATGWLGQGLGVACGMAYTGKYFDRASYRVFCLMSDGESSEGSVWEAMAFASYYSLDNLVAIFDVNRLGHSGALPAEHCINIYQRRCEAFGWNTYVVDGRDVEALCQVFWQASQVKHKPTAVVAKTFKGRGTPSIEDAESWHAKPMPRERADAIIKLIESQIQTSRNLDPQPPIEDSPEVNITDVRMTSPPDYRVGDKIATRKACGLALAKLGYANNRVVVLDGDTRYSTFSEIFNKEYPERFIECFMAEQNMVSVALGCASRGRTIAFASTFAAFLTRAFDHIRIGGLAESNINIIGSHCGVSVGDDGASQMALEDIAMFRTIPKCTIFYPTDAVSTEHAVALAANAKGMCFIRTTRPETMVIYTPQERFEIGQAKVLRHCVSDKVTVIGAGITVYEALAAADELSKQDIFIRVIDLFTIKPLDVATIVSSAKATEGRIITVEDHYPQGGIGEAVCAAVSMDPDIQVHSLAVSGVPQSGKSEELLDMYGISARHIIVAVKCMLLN

[1] = target: T2, transketolase-like-1 (TKTL1) (human) (UniProt P51854); assay: as above
T2 sequence: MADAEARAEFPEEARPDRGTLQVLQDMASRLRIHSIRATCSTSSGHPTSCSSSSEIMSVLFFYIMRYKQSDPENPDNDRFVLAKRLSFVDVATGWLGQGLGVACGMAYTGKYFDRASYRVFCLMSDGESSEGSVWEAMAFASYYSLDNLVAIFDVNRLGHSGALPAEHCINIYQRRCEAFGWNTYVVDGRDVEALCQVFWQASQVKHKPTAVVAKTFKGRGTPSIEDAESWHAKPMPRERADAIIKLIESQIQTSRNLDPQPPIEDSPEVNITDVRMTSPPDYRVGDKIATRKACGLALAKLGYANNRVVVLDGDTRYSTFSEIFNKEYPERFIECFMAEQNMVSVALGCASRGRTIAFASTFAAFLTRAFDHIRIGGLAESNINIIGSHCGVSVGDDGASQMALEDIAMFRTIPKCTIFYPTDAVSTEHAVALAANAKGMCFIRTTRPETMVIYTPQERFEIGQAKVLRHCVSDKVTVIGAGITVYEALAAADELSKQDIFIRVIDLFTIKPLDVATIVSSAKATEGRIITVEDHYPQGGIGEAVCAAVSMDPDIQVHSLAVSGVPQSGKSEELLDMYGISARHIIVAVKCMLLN

TKTL1^ΔSGS (human) = target: T3, TKTL1^ΔSGS (human) (UniProt P51854); assay: as above
T3 sequence: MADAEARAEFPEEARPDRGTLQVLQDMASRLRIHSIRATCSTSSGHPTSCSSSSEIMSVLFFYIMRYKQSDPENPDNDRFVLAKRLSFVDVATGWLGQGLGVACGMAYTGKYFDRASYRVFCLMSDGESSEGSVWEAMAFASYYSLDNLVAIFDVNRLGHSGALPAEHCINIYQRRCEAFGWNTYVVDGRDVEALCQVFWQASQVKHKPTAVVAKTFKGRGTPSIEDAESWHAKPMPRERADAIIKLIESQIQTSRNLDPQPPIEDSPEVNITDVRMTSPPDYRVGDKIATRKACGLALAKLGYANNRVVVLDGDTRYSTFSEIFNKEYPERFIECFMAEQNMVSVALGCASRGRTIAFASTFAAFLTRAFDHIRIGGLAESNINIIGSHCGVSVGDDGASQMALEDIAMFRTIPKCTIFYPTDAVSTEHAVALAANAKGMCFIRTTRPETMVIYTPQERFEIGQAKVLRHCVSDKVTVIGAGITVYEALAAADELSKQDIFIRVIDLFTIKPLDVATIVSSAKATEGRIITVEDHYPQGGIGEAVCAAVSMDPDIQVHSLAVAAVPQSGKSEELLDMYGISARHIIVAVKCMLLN

[2] = target: T2, transketolase-like-1 (TKTL1) (human); assay: pull-down; in vitro; proteins purified from HeLa cells; Flag-tagged protein captured on Flag beads incubated at 4 °C overnight with Myc-tagged protein eluted by peptide from protein A beads; washed with 0.1% NP-40 buffer; with or without R5P; both purified
[3] = target: cell division cycle 20-like protein 1 (CDH1) (UniProt Q9UM11); assay: co-IP; HeLa cells (for CDH1 with β-TRCP1 also TKTL1 KO HeLa cells), with or without R5P supplementation; lysis in 0.5% NP-40 buffer (50 mM Tris-HCl pH 7.5, 150 mM NaCl); Flag beads at 4 °C overnight
[4] = target: T4, pyruvate dehydrogenase E1 subunit alpha 1 (PDHA1)-Flag (UniProt P08559); assay: co-IP; cells co-expressing PDHA1-Flag and PDHB-Myc lysed in 0.1% NP-40 buffer; PDHA1 precipitated with Flag beads; PDHB quantified by western blot with anti-Myc tag antibody
T4 sequence: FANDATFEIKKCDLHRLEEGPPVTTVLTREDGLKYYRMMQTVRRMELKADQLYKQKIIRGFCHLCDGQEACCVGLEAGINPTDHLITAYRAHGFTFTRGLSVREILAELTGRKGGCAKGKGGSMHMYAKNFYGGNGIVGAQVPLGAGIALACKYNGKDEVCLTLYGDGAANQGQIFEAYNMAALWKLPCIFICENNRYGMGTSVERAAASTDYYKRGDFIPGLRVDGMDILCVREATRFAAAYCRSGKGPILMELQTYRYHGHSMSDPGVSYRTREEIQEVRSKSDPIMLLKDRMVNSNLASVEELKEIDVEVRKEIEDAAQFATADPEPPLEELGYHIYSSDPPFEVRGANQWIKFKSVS

binding (TKTL1^ΔD-box (human)): binds
Molecule: cell division cycle 20-like protein 1 (CDH1) (from UniProt Q9UM11 1-496)

binding [1]: binds | binding (TKTL1^ΔSGS (human)): binds | binding [2]: binds
Molecule: β-transducin repeat-containing protein 1 (β-TRCP1) (from UniProt Q9Y297 1-605)

binding [3]: binds
B1: endogenous TKTL1 (protein, UniProt P51854 1-596)
chain: MADAEARAEFPEEARPDRGTLQVLQDMASRLRIHSIRATCSTSSGHPTSCSSSSEIMSVLFFYIMRYKQSDPENPDNDRFVLAKRLSFVDVATGWLGQGLGVACGMAYTGKYFDRASYRVFCLMSDGESSEGSVWEAMAFASYYSLDNLVAIFDVNRLGHSGALPAEHCINIYQRRCEAFGWNTYVVDGRDVEALCQVFWQASQVKHKPTAVVAKTFKGRGTPSIEDAESWHAKPMPRERADAIIKLIESQIQTSRNLDPQPPIEDSPEVNITDVRMTSPPDYRVGDKIATRKACGLALAKLGYANNRVVVLDGDTRYSTFSEIFNKEYPERFIECFMAEQNMVSVALGCASRGRTIAFASTFAAFLTRAFDHIRIGGLAESNINIIGSHCGVSVGDDGASQMALEDIAMFRTIPKCTIFYPTDAVSTEHAVALAANAKGMCFIRTTRPETMVIYTPQERFEIGQAKVLRHCVSDKVTVIGAGITVYEALAAADELSKQDIFIRVIDLFTIKPLDVATIVSSAKATEGRIITVEDHYPQGGIGEAVCAAVSMDPDIQVHSLAVSGVPQSGKSEELLDMYGISARHIIVAVKCMLLN

binding [4]: binds
B2: PDHB-Myc (protein, UniProt P11177 31-359)
chain: LQVTVRDAINQGMDEELERDEKVFLLGEEVAQYDGAYKVSRGLWKKYGDKRIIDTPISEMGFAGIAVGAAMAGLRPICEFMTFNFSMQAIDQVINSAAKTYYMSGGLQPVPIVFRGPNGASAGVAAQHSQCFAAWYGHCPGLKVVSPWNSEDAKGLIKSAIRDNNPVVVLENELMYGVPFEFPPEAQSKDFLIPIGKAKIERQGTHITVVSHSRPVGHCLEAAAVLSKEGVECEVINMRTIRPMDMETIEASVMKTNHLVTVEGGWPQFGVGAEICARIMEGPAFNFLDAPAVRVTGADVPMPYAKILEDNSIPQVKDIIFAIKKTLNI
